Test results reported in the supplement of paper PMC7666118.
The other results are listed elsewhere or left out.

Sequences of proteins named here, by UniProt entry; tags and fusion partners are left off. A change or cut given only in a name is not applied to a line headed by its entry.
UniProt O94919: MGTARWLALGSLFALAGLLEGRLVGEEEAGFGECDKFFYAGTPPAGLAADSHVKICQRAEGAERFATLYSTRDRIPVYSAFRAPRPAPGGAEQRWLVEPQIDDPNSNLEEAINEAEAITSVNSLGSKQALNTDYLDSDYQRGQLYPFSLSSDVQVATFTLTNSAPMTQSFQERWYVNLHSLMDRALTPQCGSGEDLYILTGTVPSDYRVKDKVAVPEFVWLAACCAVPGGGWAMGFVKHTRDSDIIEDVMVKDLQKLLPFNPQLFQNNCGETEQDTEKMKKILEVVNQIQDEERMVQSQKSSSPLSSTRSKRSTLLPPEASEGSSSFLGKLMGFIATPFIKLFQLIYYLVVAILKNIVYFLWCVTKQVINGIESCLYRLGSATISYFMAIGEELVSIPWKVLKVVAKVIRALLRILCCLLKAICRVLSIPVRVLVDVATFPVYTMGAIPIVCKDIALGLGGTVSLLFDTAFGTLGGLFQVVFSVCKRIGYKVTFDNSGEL
UniProt O75822, whole entry: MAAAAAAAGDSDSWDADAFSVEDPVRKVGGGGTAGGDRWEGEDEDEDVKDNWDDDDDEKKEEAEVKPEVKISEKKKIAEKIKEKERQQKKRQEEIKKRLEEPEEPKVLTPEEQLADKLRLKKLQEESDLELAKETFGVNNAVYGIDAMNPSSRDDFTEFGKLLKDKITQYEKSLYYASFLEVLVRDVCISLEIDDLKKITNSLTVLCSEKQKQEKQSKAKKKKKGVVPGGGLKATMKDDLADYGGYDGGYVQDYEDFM
UniProt Q96KQ7: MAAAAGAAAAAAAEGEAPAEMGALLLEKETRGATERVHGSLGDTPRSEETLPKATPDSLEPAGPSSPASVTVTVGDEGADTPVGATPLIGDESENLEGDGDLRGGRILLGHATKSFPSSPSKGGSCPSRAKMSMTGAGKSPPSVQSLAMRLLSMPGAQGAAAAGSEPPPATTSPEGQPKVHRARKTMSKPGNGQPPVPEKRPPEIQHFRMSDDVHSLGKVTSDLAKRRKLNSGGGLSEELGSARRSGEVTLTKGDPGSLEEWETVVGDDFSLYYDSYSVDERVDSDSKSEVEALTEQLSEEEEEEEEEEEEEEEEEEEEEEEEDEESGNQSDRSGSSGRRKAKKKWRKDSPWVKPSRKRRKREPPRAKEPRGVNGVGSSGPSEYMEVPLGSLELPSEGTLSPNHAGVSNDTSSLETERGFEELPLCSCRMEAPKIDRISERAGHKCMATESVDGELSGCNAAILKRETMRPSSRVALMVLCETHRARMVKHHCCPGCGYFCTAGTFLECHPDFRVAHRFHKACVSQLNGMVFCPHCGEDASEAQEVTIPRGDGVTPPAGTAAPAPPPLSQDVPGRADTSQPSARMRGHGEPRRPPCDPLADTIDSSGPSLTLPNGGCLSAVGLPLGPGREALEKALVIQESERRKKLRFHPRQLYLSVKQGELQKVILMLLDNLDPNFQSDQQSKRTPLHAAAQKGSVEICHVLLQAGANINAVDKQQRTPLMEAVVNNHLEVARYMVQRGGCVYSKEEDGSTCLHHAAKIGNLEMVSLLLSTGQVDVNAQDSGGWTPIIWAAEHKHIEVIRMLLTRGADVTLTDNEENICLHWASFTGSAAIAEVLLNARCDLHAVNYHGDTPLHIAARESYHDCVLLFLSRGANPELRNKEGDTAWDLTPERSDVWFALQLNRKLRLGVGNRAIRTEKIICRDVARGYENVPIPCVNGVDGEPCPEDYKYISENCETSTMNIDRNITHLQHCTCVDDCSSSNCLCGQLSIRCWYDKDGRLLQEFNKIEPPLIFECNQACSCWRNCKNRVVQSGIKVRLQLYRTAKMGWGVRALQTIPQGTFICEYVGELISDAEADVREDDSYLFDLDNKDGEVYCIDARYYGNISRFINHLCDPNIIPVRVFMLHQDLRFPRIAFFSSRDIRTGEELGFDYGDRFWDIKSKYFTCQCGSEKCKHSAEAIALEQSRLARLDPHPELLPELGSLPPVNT
UniProt P23919: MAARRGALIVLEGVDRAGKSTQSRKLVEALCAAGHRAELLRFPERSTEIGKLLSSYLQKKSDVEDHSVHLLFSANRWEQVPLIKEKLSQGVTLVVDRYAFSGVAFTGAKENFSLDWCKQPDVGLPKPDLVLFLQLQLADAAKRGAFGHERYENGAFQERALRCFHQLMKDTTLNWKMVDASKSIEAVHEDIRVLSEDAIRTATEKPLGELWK
UniProt Q7Z2K6: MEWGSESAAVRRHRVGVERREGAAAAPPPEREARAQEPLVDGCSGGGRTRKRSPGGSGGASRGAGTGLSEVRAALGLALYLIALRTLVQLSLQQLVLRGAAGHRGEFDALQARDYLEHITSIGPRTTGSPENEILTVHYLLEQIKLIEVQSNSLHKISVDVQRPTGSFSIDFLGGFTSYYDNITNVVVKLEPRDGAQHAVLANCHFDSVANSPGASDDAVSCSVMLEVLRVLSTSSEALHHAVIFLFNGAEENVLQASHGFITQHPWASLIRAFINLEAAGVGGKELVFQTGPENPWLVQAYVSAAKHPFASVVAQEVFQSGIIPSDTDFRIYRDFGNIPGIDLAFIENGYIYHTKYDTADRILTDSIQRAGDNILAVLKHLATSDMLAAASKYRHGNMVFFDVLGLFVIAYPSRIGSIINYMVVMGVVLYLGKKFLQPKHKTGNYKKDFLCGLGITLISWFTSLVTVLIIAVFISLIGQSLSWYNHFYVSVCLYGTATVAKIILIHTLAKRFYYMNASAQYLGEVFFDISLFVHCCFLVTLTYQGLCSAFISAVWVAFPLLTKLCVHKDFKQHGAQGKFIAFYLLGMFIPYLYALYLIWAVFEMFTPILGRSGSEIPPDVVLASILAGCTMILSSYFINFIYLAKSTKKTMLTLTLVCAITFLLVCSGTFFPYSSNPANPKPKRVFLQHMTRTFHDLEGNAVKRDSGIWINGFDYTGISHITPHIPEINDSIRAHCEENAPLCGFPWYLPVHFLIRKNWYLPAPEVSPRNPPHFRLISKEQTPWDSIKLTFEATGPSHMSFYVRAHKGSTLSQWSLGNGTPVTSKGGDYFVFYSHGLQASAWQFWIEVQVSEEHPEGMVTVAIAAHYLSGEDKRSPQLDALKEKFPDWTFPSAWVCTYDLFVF
UniProt O60841: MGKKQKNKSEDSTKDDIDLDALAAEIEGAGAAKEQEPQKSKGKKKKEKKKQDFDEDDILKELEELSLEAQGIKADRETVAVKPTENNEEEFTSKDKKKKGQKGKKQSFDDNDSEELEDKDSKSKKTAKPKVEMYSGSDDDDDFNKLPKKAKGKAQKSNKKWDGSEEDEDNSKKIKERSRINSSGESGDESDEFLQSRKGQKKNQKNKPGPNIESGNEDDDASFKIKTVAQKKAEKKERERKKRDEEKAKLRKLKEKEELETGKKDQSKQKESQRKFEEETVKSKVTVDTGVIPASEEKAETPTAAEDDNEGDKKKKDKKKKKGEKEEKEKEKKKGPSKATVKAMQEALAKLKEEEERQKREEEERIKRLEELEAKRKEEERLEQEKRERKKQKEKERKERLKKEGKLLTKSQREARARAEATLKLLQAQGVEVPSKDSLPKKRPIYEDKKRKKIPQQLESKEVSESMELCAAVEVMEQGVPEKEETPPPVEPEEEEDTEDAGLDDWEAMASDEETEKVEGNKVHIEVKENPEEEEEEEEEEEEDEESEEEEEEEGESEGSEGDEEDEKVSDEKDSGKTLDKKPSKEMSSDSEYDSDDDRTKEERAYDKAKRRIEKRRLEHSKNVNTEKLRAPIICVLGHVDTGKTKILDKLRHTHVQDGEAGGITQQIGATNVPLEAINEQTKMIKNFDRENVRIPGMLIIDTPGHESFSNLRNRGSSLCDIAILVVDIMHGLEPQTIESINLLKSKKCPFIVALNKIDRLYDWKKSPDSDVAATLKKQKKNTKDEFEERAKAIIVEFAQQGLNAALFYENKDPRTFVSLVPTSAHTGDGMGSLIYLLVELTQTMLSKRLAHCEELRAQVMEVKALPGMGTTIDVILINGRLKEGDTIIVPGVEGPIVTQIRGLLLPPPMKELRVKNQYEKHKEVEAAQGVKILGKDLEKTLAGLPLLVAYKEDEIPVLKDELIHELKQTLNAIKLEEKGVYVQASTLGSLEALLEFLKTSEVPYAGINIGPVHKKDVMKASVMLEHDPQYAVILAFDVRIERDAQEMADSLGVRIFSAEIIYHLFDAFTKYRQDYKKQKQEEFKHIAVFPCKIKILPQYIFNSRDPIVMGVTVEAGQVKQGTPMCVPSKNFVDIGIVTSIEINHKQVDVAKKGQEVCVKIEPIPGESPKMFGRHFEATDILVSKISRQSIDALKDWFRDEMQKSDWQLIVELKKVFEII
UniProt Q9H2P9: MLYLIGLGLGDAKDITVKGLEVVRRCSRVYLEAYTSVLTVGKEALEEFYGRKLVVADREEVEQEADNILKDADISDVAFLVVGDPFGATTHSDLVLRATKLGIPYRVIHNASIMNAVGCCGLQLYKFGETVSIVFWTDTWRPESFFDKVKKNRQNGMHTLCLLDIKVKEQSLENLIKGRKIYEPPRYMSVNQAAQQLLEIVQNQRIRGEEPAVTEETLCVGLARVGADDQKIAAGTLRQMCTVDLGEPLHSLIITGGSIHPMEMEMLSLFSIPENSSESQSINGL
UniProt P23588, whole entry: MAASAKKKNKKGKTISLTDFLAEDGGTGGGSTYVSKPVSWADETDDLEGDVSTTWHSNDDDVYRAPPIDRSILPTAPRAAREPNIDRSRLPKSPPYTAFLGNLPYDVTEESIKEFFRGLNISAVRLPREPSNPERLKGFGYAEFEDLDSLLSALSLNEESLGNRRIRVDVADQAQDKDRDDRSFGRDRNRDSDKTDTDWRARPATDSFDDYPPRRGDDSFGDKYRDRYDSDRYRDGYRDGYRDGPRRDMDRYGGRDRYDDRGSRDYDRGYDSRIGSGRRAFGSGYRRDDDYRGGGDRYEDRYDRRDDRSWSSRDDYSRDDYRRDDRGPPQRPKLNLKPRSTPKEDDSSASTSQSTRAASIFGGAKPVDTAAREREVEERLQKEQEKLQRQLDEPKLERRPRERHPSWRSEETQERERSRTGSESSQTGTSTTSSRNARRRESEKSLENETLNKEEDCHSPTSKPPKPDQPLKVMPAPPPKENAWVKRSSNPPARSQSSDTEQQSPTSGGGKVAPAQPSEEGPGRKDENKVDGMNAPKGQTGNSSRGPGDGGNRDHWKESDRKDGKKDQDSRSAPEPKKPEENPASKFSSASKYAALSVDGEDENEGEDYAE
UniProt P54852: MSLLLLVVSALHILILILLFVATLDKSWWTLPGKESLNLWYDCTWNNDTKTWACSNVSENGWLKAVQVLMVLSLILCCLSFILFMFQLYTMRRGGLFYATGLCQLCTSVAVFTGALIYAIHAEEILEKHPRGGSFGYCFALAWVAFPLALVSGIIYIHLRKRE
UniProt P33316: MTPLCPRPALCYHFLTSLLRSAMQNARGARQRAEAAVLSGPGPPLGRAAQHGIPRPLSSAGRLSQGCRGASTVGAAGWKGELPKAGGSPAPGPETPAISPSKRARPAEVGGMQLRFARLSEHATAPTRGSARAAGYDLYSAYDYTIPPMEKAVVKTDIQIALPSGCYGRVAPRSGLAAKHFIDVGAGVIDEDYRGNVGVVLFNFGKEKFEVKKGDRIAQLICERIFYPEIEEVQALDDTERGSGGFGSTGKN
UniProt O60884: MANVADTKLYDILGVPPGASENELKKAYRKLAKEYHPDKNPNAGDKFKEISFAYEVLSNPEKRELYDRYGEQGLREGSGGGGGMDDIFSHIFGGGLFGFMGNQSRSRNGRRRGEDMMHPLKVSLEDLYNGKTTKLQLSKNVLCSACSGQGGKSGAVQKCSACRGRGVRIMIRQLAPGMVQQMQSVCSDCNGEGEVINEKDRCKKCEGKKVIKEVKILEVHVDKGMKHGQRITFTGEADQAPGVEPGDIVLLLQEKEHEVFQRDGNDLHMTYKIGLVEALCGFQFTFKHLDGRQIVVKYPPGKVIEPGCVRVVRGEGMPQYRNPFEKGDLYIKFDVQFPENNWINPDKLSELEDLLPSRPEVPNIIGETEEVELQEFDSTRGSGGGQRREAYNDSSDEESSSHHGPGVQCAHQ
UniProt Q9UKB3: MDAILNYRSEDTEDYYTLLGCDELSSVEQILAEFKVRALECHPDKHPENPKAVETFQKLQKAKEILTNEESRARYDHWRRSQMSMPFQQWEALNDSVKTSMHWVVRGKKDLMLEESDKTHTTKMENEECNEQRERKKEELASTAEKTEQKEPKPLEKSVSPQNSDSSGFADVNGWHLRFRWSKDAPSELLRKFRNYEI
UniProt P98172: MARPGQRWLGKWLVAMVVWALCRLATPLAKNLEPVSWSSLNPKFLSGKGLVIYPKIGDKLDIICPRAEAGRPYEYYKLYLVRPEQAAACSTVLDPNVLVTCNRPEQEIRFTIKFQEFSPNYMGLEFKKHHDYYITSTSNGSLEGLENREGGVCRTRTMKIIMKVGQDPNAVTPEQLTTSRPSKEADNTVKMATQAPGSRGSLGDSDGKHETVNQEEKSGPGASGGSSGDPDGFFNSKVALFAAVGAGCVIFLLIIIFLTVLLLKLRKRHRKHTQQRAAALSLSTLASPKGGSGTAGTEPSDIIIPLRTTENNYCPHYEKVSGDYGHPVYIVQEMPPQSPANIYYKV

These targets were tested with COc1ccc(Cn2ccc3ccc(C(=O)NO)cc32)cc1 (assay: dose-dependent thermal stabilisation call (2D-TPP, DLPTP, 10% FDR) (binary (1 = stabilised)); higher = stabilised by the compound). Details: system: HL-60 intact cells; concentration range 0.04-10 µM.

Target	dose-dependent thermal stabilisation call
EIF3F (UniProt O00303)	inactive: 0
ENDOD1 (UniProt O94919)	inactive: 0
EIF3J (UniProt O75822)	active: 1
DLAT (UniProt P10515)	inactive: 0
DOCK6 (UniProt Q96HP0)	inactive: 0
EHMT2 (UniProt Q96KQ7)	inactive: 0
EED (UniProt O75530)	inactive: 0
EIF2A (UniProt Q9BY44)	inactive: 0
DOK3 (UniProt Q7L591)	inactive: 0
DYRK1A (UniProt Q13627)	inactive: 0
DTYMK (UniProt P23919)	inactive: 0
ERMP1 (UniProt Q7Z2K6)	inactive: 0
DYNLL1 (UniProt P63167)	inactive: 0
EEFSEC (UniProt P57772)	inactive: 0
EIF2B5 (UniProt Q13144)	inactive: 0
EAPP (UniProt Q56P03)	inactive: 0
EIF5B (UniProt O60841)	inactive: 0
DPH5 (UniProt Q9H2P9)	active: 1
EIF4B (UniProt P23588)	inactive: 0

Target	dose-dependent thermal stabilisation call
EMP3 (UniProt P54852)	inactive: 0
DUT (UniProt P33316)	inactive: 0
DNAJA2 (UniProt O60884)	inactive: 0
EIF2C1 (UniProt Q9UL18)	inactive: 0
DUS4L (UniProt O95620)	inactive: 0
EFTUD1 (UniProt Q7Z2Z2)	inactive: 0
EIF2AK2 (UniProt P19525)	inactive: 0
DPH1 (UniProt Q9BZG8)	inactive: 0
EIF3D (UniProt O15371)	inactive: 0
DNAJC12 (UniProt Q9UKB3)	inactive: 0
ECH1 (UniProt Q13011)	inactive: 0
DNAJC2 (UniProt Q99543)	inactive: 0
EPC2 (UniProt Q52LR7)	inactive: 0
ENDOG (UniProt Q14249)	inactive: 0
DLD (UniProt P09622)	inactive: 0
EPHX1 (UniProt P07099)	active: 1
DIP2A (UniProt Q14689)	inactive: 0
EFNB1 (UniProt P98172)	inactive: 0
DSG2 (UniProt Q14126)	inactive: 0

Some of the entries above in another layout.
Target,dose-dependent thermal stabilisation call
DLD (UniProt P09622),inactive: 0
EPHX1 (UniProt P07099),active: 1
